Assay results from the supplement of paper PMC10849652.
Some of the results follow.

Amino acid sequences for entries named in this document (tags omitted). A change or cut given only in a name is not applied to a line headed by its entry.
UniProt O14802: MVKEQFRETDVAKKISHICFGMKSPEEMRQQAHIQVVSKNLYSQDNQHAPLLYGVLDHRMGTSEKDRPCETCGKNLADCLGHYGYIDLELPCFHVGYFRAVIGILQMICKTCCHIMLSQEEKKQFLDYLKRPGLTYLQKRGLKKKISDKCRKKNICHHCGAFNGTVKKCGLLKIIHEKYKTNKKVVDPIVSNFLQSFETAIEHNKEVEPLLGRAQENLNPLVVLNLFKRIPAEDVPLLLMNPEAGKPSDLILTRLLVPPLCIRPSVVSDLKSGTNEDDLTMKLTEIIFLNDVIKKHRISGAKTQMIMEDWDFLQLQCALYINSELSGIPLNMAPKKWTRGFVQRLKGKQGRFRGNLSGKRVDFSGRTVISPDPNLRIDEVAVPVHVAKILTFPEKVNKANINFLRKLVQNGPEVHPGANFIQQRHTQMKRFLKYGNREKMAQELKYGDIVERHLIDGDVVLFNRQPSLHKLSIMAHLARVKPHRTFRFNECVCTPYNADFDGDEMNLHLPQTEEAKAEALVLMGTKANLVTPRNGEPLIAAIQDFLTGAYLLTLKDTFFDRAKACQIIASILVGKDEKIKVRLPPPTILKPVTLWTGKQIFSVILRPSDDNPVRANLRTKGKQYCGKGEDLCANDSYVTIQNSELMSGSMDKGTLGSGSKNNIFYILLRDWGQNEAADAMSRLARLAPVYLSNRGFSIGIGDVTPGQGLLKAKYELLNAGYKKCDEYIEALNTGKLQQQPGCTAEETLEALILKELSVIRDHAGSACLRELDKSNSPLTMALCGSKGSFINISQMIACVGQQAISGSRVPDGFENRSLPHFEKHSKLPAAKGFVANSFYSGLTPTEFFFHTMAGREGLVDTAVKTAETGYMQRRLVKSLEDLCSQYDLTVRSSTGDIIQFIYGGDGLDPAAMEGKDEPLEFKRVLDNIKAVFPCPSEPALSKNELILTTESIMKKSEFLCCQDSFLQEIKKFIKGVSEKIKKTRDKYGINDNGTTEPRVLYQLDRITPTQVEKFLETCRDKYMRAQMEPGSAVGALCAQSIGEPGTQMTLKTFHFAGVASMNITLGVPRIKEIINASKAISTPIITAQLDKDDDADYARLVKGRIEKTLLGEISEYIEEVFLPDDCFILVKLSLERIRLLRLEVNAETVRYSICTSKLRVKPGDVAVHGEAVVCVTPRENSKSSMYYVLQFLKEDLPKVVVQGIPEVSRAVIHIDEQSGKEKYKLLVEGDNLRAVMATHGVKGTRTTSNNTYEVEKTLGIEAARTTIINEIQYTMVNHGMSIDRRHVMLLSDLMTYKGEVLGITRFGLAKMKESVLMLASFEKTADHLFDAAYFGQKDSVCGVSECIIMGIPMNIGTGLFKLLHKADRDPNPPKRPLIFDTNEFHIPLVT
UniProt P14859: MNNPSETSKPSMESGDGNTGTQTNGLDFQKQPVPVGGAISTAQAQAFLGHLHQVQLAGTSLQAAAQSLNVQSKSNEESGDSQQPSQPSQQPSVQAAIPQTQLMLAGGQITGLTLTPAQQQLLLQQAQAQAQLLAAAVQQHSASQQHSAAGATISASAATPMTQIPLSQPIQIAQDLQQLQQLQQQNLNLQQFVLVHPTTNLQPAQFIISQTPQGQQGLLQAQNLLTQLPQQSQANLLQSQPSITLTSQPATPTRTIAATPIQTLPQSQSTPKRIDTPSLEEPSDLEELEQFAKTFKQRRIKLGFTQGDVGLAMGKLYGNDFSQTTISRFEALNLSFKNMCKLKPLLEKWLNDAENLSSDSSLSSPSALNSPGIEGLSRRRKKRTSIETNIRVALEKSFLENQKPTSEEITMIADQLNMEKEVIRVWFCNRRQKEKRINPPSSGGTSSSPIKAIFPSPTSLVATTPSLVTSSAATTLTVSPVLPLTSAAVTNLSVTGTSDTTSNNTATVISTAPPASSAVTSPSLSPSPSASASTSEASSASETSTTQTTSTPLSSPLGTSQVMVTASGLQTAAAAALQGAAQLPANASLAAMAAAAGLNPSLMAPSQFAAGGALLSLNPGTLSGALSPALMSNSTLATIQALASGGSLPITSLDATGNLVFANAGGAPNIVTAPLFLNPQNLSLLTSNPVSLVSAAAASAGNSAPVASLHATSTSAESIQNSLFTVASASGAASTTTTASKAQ
UniProt Q9BX97: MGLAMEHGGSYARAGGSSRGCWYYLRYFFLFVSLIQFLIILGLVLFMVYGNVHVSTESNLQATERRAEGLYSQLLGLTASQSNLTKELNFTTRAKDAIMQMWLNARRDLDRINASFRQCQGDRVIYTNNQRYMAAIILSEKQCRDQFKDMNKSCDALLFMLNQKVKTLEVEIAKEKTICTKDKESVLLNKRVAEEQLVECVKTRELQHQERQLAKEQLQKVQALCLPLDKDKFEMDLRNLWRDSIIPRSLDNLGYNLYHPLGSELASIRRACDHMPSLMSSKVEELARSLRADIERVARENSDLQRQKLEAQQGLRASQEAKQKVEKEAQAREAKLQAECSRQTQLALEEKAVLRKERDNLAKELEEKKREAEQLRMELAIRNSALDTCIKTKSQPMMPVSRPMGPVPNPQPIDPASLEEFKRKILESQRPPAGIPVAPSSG
UniProt O95602, whole entry, looked up: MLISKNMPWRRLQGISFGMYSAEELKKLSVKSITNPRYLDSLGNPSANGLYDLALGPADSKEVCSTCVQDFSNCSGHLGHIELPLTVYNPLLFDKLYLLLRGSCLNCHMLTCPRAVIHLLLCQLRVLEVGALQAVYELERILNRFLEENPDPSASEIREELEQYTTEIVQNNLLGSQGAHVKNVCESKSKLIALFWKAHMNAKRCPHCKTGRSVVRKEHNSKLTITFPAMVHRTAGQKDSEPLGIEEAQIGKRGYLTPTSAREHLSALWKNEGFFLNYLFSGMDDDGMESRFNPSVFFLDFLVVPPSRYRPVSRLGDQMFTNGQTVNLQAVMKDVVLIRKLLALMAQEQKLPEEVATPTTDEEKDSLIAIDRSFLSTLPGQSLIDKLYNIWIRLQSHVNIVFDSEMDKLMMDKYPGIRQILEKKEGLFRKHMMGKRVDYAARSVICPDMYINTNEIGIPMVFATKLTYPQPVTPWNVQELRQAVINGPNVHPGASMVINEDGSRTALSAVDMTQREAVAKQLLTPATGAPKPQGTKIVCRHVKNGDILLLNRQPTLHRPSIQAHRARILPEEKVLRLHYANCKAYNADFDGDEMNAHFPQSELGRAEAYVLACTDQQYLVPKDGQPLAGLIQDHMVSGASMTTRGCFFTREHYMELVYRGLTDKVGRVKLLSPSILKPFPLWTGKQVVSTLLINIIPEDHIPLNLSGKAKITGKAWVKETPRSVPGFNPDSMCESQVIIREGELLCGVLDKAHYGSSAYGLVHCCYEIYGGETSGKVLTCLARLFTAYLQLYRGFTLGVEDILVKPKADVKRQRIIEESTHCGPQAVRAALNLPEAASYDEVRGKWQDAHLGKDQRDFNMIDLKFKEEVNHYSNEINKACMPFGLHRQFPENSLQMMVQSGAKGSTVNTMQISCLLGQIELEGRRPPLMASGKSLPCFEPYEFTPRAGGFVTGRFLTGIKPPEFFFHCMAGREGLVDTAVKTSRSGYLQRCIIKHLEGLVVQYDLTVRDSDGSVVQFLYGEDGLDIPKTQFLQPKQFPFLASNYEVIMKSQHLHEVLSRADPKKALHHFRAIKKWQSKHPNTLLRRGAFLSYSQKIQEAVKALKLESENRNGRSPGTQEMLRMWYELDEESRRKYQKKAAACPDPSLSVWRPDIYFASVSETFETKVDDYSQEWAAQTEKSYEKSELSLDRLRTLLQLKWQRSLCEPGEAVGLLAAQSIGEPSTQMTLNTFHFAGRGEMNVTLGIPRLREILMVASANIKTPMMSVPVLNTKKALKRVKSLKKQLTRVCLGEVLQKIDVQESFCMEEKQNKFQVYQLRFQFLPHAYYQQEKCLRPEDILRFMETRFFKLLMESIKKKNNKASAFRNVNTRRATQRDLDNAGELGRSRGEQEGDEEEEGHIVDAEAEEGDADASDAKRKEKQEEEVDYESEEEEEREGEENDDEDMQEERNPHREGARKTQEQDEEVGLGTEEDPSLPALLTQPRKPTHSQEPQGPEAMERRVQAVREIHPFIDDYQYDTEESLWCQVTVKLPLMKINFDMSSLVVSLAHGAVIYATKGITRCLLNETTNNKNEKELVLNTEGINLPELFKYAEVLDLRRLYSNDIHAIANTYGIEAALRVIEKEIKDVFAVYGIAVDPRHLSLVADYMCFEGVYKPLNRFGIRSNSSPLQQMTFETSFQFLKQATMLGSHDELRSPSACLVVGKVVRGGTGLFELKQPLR
UniProt Q6EEV4: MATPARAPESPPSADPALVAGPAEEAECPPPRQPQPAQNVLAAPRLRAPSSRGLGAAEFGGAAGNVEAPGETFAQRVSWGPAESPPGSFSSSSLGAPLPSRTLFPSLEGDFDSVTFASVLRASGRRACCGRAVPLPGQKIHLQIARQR
UniProt Q9NVS9: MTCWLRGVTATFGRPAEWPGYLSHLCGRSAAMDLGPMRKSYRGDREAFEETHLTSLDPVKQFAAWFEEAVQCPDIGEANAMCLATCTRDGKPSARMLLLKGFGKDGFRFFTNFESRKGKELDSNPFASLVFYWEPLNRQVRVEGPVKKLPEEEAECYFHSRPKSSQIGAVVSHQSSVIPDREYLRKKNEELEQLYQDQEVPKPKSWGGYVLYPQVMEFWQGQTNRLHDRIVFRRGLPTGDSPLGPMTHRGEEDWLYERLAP
UniProt Q9UHN1: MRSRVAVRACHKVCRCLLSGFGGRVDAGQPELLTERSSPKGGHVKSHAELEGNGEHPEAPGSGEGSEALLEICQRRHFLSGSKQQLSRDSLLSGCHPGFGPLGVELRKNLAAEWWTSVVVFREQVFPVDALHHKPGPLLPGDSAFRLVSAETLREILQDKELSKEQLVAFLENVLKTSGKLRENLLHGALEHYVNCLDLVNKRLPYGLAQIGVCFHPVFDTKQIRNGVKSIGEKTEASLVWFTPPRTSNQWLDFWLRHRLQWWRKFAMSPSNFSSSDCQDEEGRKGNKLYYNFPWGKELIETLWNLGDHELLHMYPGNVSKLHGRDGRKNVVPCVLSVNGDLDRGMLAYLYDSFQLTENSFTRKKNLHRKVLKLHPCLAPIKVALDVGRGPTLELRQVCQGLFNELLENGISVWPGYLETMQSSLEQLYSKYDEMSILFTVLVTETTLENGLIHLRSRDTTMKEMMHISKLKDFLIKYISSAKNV
UniProt P16435: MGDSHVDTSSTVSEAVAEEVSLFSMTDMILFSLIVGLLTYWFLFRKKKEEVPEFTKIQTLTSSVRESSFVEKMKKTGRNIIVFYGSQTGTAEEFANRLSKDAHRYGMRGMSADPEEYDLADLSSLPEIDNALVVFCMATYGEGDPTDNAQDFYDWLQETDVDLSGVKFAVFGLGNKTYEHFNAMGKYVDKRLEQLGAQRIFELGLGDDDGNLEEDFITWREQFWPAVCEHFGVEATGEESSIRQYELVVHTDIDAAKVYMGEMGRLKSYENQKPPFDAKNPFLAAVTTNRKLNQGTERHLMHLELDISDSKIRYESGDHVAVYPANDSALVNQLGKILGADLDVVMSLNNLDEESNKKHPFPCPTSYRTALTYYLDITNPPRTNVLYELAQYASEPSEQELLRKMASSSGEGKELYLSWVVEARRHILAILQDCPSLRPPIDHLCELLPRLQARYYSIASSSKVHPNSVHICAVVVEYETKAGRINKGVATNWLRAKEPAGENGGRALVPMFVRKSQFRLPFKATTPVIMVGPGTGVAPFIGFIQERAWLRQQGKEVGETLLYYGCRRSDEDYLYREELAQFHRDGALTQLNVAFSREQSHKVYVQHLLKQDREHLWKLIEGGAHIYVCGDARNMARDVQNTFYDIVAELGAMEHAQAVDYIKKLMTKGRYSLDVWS
UniProt Q6P1K2: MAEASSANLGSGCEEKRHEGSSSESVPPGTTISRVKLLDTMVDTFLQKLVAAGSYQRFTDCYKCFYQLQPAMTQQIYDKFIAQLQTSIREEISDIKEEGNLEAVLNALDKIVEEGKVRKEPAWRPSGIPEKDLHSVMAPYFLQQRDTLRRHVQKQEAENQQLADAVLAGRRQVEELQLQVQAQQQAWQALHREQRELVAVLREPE
UniProt Q13356: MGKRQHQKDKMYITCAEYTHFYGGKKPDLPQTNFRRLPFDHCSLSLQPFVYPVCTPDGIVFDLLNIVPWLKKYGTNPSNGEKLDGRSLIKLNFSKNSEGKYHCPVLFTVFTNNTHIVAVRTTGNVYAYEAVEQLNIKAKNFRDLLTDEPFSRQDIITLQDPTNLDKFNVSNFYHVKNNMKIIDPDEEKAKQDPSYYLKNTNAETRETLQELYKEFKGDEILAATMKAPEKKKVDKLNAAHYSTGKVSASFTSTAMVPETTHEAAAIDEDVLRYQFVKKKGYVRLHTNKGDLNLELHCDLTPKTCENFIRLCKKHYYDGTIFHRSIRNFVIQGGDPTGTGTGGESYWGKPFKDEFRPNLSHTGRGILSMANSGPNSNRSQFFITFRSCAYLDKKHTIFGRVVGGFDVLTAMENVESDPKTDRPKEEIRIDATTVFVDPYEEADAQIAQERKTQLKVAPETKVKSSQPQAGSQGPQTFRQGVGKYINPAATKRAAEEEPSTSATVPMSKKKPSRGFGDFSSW

How the values were obtained:
Assay in all cases: log2 fold change, soluble protein after heating vs DMSO (PISA); higher = thermal stabilisation; K562 cells, 10 uM, 30 min; active = over 0.2 and 3.5 SD of the protein, either way, in both replicates (recomputed)
[1] = compound: C1=CC=C(C=C1)[C@H](COC2=CC3=C(C=C2)NC(=O)N3)NC(=O)C4=CC=CN(C4=O)CC5=CC(=C(C=C5)F)F
Outline: (§1)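 Values are thermal stability changes relative to control samples and are taken from duplicates. They are stated as log2 fold changes. Before quantification by TMTpro 16plex LC-MS/MS with equalised channel sums, K562 cells at 2×10^6 cells/mL were treated with 10 μM compound for 30 min, heated in aliquots for 3 min across 48°C-58°C, pooled, extracted in PBS with 0.5% NP-40 at 4°C, and centrifuged at 21,000xg for 90 min to give the soluble supernatant.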

[2] = compound: CC1=C(SC2=C1C(=N[C@H](C3=NN=C(N32)C)CC(=O)N)C4=CC=C(C=C4)Cl)C
Outline: as §1

[3] = compound: CC1=C2C(=CC=C1)N=C(N(C2=O)C3=CC=CC=C3C)CN4C=NC5=C(N=CN=C54)N
Outline: as §1

[4] = compound: Cc1sc2c(c1C)C(c1ccc(Cl)cc1)=N[C@@H](CC(=O)OC(C)(C)C)c1nnc(C)n1-2
Outline: as §1

[5] = compound: c1ccc([C@@H]2C[C@H]2NC2CCNCC2)cc1
Outline: as §1

Measured: log2 fold change

POLR3A (UniProt O14802)
inactive: [1] -0.027 | [2] -0.033 | [3] -0.014 | [4] 0.032 | [5] 0.023

PNKD isoform 3 (UniProt Q8N490)
inactive: [1] 0.042 | [2] 0.019 | [3] 0.132 | [4] -0.08 | [5] 0.04

PLEKHO2 (UniProt Q8TD55)
inactive: [1] -0.067 | [2] 0.197 | [3] 0.023 | [4] -0.081 | [5] 0.145

POLR1C (UniProt O15160)
inactive: [1] -0.08 | [2] -0.025 | [3] 0.005 | [4] 0.053 | [5] 0.008

POU2F1 isoform 6 (UniProt P14859)
inactive: [1] -0.081 | [2] 0.103 | [3] 0.086 | [4] -0.049 | [5] 0.085

POLR3F (UniProt Q9H1D9)
inactive: [1] 0.025 | [2] -0.029 | [3] 0.124 | [4] -0.005 | [5] 0.009

PPA1 (UniProt Q15181)
inactive: [1] -0.067 | [2] 0.038 | [3] 0.057 | [4] -0.019 | [5] -0.062

PLVAP (UniProt Q9BX97)
inactive: [1] -0.144 | [2] 0.143 | [3] 0.118 | [4] -0.028 | [5] -0.044

PPIL1 (UniProt Q9Y3C6)
inactive: [1] -0.046 | [2] 0.012 | [3] 0.021 | [4] 0.032 | [5] -0.052

POLR1D (UniProt P0DPB6)
inactive: [1] 0.147 | [2] -0.083 | [3] 0.026 | [4] -0.074 | [5] 0.03

PMM1 (UniProt Q92871)
inactive: [1] -0.031 | [2] -0.001 | [3] 0.091 | [4] 0.004 | [5] -0.006

POLR1A (UniProt O95602)
inactive: [1] 0.049 | [2] -0.043 | [3] -0.044 | [4] 0.096 | [5] -0.015

PLOD1 isoform 2 (UniProt Q02809)
inactive: [1] 0.057 | [2] -0.092 | [3] -0.008 | [4] 0.008 | [5] 0

PNPLA4 (UniProt P41247)
inactive: [1] 0.068 | [2] 0.158 | [3] 0.042 | [4] 0.099 | [5] 0.178

POLR2M (UniProt Q6EEV4)
inactive: [1] 0.092 | [2] 0.105 | [3] -0.002 | [4] -0.128 | [5] -0.107

PNPO (UniProt Q9NVS9)
inactive: [1] 0.048 | [2] 0.042 | [3] 0.035 | [4] -0.031 | [5] -0.022

POLG2 (UniProt Q9UHN1)
inactive: [1] 0.012 | [2] 0 | [3] -0.028 | [4] 0.008 | [5] 0.006

2 records picked at random from those above:
POLR2M (UniProt Q6EEV4)
inactive: [1] 0.092 | [2] 0.105 | [3] -0.002 | [4] -0.128 | [5] -0.107

PNPLA4 (UniProt P41247)
inactive: [1] 0.068 | [2] 0.158 | [3] 0.042 | [4] 0.099 | [5] 0.178

Next part.

POLA2 (UniProt Q14181)
inactive: [1] -0.023 | [2] 0.048 | [3] 0.114 | [4] -0.006 | [5] 0.034

POFUT1 (UniProt Q9H488)
inactive: [1] 0.046 | [2] -0.025 | [3] -0.055 | [4] 0.002 | [5] -0.046

POR (UniProt P16435)
inactive: [1] 0.007 | [2] 0.064 | [3] 0.017 | [4] -0.002 | [5] -0.06

PMF1 (UniProt Q6P1K2)
inactive: [1] 0.009 | [2] -0.025 | [3] -0.003 | [4] -0.044 | [5] -0.02

PPIL2 (UniProt Q13356)
inactive: [1] -0.028 | [2] 0.041 | [3] 0.098 | [4] -0.019 | [5] -0.011

PPFIA1 (UniProt Q13136)
inactive: [1] -0.053 | [2] -0.058 | [3] 0.063 | [4] 0.032 | [5] -0.021

POP5 (UniProt Q969H6)
inactive: [1] 0.118 | [2] -0.021 | [3] -0.066 | [4] 0.044 | [5] -0.034
